From the supplement of paper PMC7661543
± gives the standard deviation of the averaged measurements. The effect of the compound repeats well; differences between the knockouts mostly do not.

Test system: MDA-MB-231
Experiment: relative cell number vs DMSO control (72 h) (% of DMSO); higher = less growth inhibition (more cells)
Procedure: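 QMAP-Seq: a pool of 5 breast cancer cell lines (ZR-75-1, SKBR3, HCC-38, MDA-MB-231, BT-20), each carrying 12 doxycycline-inducible Cas9 sgRNA perturbations (11 knockouts plus non-targeting sgNT), was treated with compounds for 72 h at four 10-fold doses (10 nM-10 uM or 1 nM-1 uM range). Barcodes were amplified and sequenced, and cell number was interpolated from 293T spike-in standard curves. The result is expressed as % of the median of DMSO wells. Two biological replicates.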

[1] = sgRNA knockout: sgATF3, 1000 nM
[2] = sgRNA knockout: sgATF3, 10000 nM
[3] = sgRNA knockout: sgATF4, 1000 nM
[4] = sgRNA knockout: sgATF4, 10000 nM
[5] = sgRNA knockout: sgATF6, 1000 nM
[6] = sgRNA knockout: sgATF6, 10000 nM
[7] = sgRNA knockout: sgATG7, 1000 nM
[8] = sgRNA knockout: sgATG7, 10000 nM
[9] = sgRNA knockout: sgERN1, 1000 nM
[10] = sgRNA knockout: sgERN1, 10000 nM
[11] = sgRNA knockout: sgHSF1, 1000 nM
[12] = sgRNA knockout: sgHSF1, 10000 nM
[13] = sgRNA knockout: sgHSF2, 1000 nM
[14] = sgRNA knockout: sgHSF2, 10000 nM
[15] = sgRNA knockout: sgKEAP1, 100 nM
[16] = sgRNA knockout: sgKEAP1, 1000 nM
[17] = sgRNA knockout: sgKEAP1, 10000 nM
[18] = sgRNA knockout: sgNFE2L2, 10 nM
[19] = sgRNA knockout: sgNFE2L2, 100 nM
[20] = sgRNA knockout: sgNFE2L2, 1000 nM
[21] = sgRNA knockout: sgNFE2L2, 10000 nM
[22] = sgRNA knockout: sgSLC35F2, 10 nM
[23] = sgRNA knockout: sgSLC35F2, 100 nM
[24] = sgRNA knockout: sgSLC35F2, 1000 nM
[25] = sgRNA knockout: sgSLC35F2, 10000 nM
[26] = sgRNA knockout: sgXBP1, 1000 nM
[27] = sgRNA knockout: sgXBP1, 10000 nM

SMILES: Cc1ccccc1-n1c(Cn2cnc3c(N)ncnc32)nc2cccc(C)c2c1=O
- relative cell number (sgRNA knockout: sgATF3, 10 nM): 134 ± 20
- relative cell number (sgRNA knockout: sgATF3, 100 nM): 144 ± 14
- relative cell number [1]: 112 ± 12
- relative cell number [2]: 126 ± 28
- relative cell number (sgRNA knockout: sgATF4, 10 nM): 154 ± 9.7
- relative cell number (sgRNA knockout: sgATF4, 100 nM): 159 ± 46
- relative cell number [3]: 144 ± 61
- relative cell number [4]: 129 ± 9.1
- relative cell number (sgRNA knockout: sgATF6, 10 nM): 103 ± 16
- relative cell number (sgRNA knockout: sgATF6, 100 nM): 114 ± 28
- relative cell number [5]: 110 ± 14
- relative cell number [6]: 110 ± 33
- relative cell number (sgRNA knockout: sgATG7, 10 nM): 121 ± 0.61
- relative cell number (sgRNA knockout: sgATG7, 100 nM): 114 ± 4.4
- relative cell number [7]: 117 ± 13
- relative cell number [8]: 106 ± 22
- relative cell number (sgRNA knockout: sgERN1, 10 nM): 113 ± 8.4
- relative cell number (sgRNA knockout: sgERN1, 100 nM): 117 ± 5.1
- relative cell number [9]: 102 ± 12
- relative cell number [10]: 98.3 ± 24
- relative cell number (sgRNA knockout: sgHSF1, 10 nM): 87.3 ± 6.5
- relative cell number (sgRNA knockout: sgHSF1, 100 nM): 126 ± 27
- relative cell number [11]: 109 ± 1.4
- relative cell number [12]: 103 ± 4
- relative cell number (sgRNA knockout: sgHSF2, 10 nM): 98.3 ± 24
- relative cell number (sgRNA knockout: sgHSF2, 100 nM): 143.3 ± 0.77
- relative cell number [13]: 107 ± 26
- relative cell number [14]: 114 ± 0.13
- relative cell number (sgRNA knockout: sgKEAP1, 10 nM): 94.1 ± 17
- relative cell number [15]: 123 ± 2.8
- relative cell number [16]: 93.7 ± 26
- relative cell number [17]: 105 ± 3.3
- relative cell number [18]: 110 ± 6.4
- relative cell number [19]: 137 ± 10
- relative cell number [20]: 94.2 ± 21
- relative cell number [21]: 94.9 ± 10
- relative cell number [22]: 132 ± 20
- relative cell number [23]: 103 ± 21
- relative cell number [24]: 110 ± 24
- relative cell number [25]: 132 ± 15
- relative cell number (sgRNA knockout: sgXBP1, 10 nM): 102 ± 3.2
- relative cell number (sgRNA knockout: sgXBP1, 100 nM): 114 ± 24
- relative cell number [26]: 96.6 ± 19
- relative cell number [27]: 105 ± 22

SMILES: Cc1cnc(-c2cnc(NCCNc3ccc(C#N)cn3)nc2-c2ccc(Cl)cc2Cl)[nH]1
- relative cell number (sgRNA knockout: sgATF3, 10 nM): 96.8 ± 9.5
- relative cell number (sgRNA knockout: sgATF3, 100 nM): 90.8 ± 3.9
- relative cell number [1]: 57.2 ± 4.4
- relative cell number [2]: 47.2 ± 17
- relative cell number (sgRNA knockout: sgATF4, 10 nM): 109 ± 30
- relative cell number (sgRNA knockout: sgATF4, 100 nM): 103 ± 26
- relative cell number [3]: 104 ± 14
- relative cell number [4]: 67.3 ± 4.3
- relative cell number (sgRNA knockout: sgATF6, 10 nM): 80.8 ± 47
- relative cell number (sgRNA knockout: sgATF6, 100 nM): 97.7 ± 4.5
- relative cell number [5]: 67.7 ± 11
- relative cell number [6]: 62.8 ± 9.7
- relative cell number (sgRNA knockout: sgATG7, 10 nM): 98 ± 4.8
- relative cell number (sgRNA knockout: sgATG7, 100 nM): 81.9 ± 7.8
- relative cell number [7]: 96.3 ± 6
- relative cell number [8]: 69.2 ± 4.3
- relative cell number (sgRNA knockout: sgERN1, 10 nM): 103 ± 4.4
- relative cell number (sgRNA knockout: sgERN1, 100 nM): 89.9 ± 24
- relative cell number [9]: 78.7 ± 2.2
- relative cell number [10]: 64.7 ± 14
- relative cell number (sgRNA knockout: sgHSF1, 10 nM): 98.1 ± 5.7
- relative cell number (sgRNA knockout: sgHSF1, 100 nM): 90.9 ± 22
- relative cell number [11]: 78.8 ± 11
- relative cell number [12]: 49.5 ± 0.59
- relative cell number (sgRNA knockout: sgHSF2, 10 nM): 108 ± 22
- relative cell number (sgRNA knockout: sgHSF2, 100 nM): 101 ± 2.4
- relative cell number [13]: 78.5 ± 30
- relative cell number [14]: 67.33 ± 0.17
- relative cell number (sgRNA knockout: sgKEAP1, 10 nM): 98.8 ± 37
- relative cell number [15]: 92.9 ± 1.8
- relative cell number [16]: 92.3 ± 17
- relative cell number [17]: 44.7 ± 3
- relative cell number [18]: 89.9 ± 19
- relative cell number [19]: 86.1 ± 4
- relative cell number [20]: 83.5 ± 27
- relative cell number [21]: 57 ± 9.3
- relative cell number [22]: 87.9 ± 38
- relative cell number [23]: 94.8 ± 14
- relative cell number [24]: 71.8 ± 3
- relative cell number [25]: 51.3 ± 2.6
- relative cell number (sgRNA knockout: sgXBP1, 10 nM): 87.4 ± 1.3
- relative cell number (sgRNA knockout: sgXBP1, 100 nM): 98.2 ± 17
- relative cell number [26]: 80.7 ± 11
- relative cell number [27]: 59 ± 7.6

SMILES: Cc1cnc(Nc2ccc(OCCN3CCCC3)cc2)nc1Nc1cccc(S(=O)(=O)NC(C)(C)C)c1
- relative cell number (sgRNA knockout: sgATF3, 10 nM): 95.9 ± 60
- relative cell number (sgRNA knockout: sgATF3, 100 nM): 93.2 ± 6.5
- relative cell number [1]: 65.2 ± 9.7
- relative cell number [2]: 10.3 ± 1.6
- relative cell number (sgRNA knockout: sgATF4, 10 nM): 104 ± 37
- relative cell number (sgRNA knockout: sgATF4, 100 nM): 83.6 ± 11
- relative cell number [3]: 88.3 ± 32
- relative cell number [4]: 8.71 ± 3.9
- relative cell number (sgRNA knockout: sgATF6, 10 nM): 117 ± 49
- relative cell number (sgRNA knockout: sgATF6, 100 nM): 95.4 ± 7.5
- relative cell number [5]: 63.9 ± 9.3
- relative cell number [6]: 9.25 ± 2.1
- relative cell number (sgRNA knockout: sgATG7, 10 nM): 94.3 ± 40
- relative cell number (sgRNA knockout: sgATG7, 100 nM): 92.3 ± 14
- relative cell number [7]: 57.5 ± 0.69
- relative cell number [8]: 4.67 ± 0.62
- relative cell number (sgRNA knockout: sgERN1, 10 nM): 97.3 ± 16
- relative cell number (sgRNA knockout: sgERN1, 100 nM): 76.3 ± 20
- relative cell number [9]: 55.7 ± 10
- relative cell number [10]: 7.17 ± 0.98
- relative cell number (sgRNA knockout: sgHSF1, 10 nM): 102 ± 1.6
- relative cell number (sgRNA knockout: sgHSF1, 100 nM): 72.9 ± 16
- relative cell number [11]: 57.8 ± 9.6
- relative cell number [12]: 8.75 ± 5.3
- relative cell number (sgRNA knockout: sgHSF2, 10 nM): 115 ± 26
- relative cell number (sgRNA knockout: sgHSF2, 100 nM): 107 ± 6
- relative cell number [13]: 65.2 ± 9.7
- relative cell number [14]: 6.8 ± 1.3
- relative cell number (sgRNA knockout: sgKEAP1, 10 nM): 108 ± 25
- relative cell number [15]: 96 ± 29
- relative cell number [16]: 70.4 ± 38
- relative cell number [17]: 8.88 ± 0.4
- relative cell number [18]: 111 ± 18
- relative cell number [19]: 117 ± 3.5
- relative cell number [20]: 70.6 ± 6.6
- relative cell number [21]: 9.14 ± 3.2
- relative cell number [22]: 96.7 ± 24
- relative cell number [23]: 85 ± 3.9
- relative cell number [24]: 65.7 ± 3.4
- relative cell number [25]: 5.11 ± 1.3
- relative cell number (sgRNA knockout: sgXBP1, 10 nM): 96.6 ± 3.4
- relative cell number (sgRNA knockout: sgXBP1, 100 nM): 106 ± 15
- relative cell number [26]: 69.2 ± 4.7
- relative cell number [27]: 7.51 ± 1.8
